This is one part of the list.

Protein sequences, listed by entry. Tags and fused reporters are not part of them.
UniProt Q0JBA9, entry or part of it: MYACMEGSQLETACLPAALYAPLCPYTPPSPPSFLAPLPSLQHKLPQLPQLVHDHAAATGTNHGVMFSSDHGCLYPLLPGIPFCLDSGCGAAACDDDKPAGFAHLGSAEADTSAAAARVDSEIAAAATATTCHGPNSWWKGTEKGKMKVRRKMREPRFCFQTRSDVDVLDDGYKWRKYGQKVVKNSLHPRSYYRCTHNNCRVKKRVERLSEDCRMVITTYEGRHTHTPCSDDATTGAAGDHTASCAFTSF

Our source for the binding signal values is PMC7819943, “Rice protein-binding microarrays: a tool to detect cis-acting elements near promoter regions in rice”.

The target in the assay is OsWRKY34 (Oryza sativa, UniProt Q0JBA9 1-250). The assay can be described thus: protein-binding microarray (RPBM); PBS, 2% BSA, 51.3 ng/ul salmon testes DNA, 50 uM zinc acetate, 200 nM TF, 25 C, 1 h; high values mean tight binding. The note with it: protein: recombinant; tags: N-terminal polyhistidine and DsRed monomer fusion (pET32a); label: CyDye5-dUTP incorporated in the synthesized complementary strand; 3' TTTTT single-stranded linker to array surface; dsDNA, one strand shown. A digest of the protocol:
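In PBS with 2% BSA, salmon testes DNA and 50 µM zinc acetate, 200 nM protein was incubated on a custom Agilent array at 25 °C for 1 h and then washed off. The array had been made double-stranded by primer extension with Cy5-dUTP and blocked with 2% BSA. The proteins were transcription factors fused N-terminally to polyhistidine and DsRed, expressed in E. coli BL21-CodonPlus and purified on Ni–NTA. The binding signal is per-feature fluorescence intensity (arbitrary units) from an Axon 4000B scanner.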
Turning to “ACAATCAGTGGGGAGGGAAGGGCCCCTTATTTATTCGCATCGGAGTCACCTAGTGCAG”, the binding signal was 8200 fluorescence intensity (a.u.).

For the sequence “ACCCACCATCAATCAGCTCTCACACAAGCCCAATACGGCACGGAGTCACCTAGTGCAG”, the binding signal was 8410 fluorescence intensity (a.u.).

In the case of “GTTTTGTGATAATTTGGTATTTTTTGTGAAATTTACTTTACGGAGTCACCTAGTGCAG”, the binding signal was 9010 fluorescence intensity (a.u.).

On to “TTCCCACATTTTCCTTGGTTGGCACTTAGCACCATATGTTCGGAGTCACCTAGTGCAG”, for which the binding signal was 8350 fluorescence intensity (a.u.).

Consider “CTTTACTTACTTTGGTGCACATGCATGCAGATTCTGTAAACGGAGTCACCTAGTGCAG”, for which the binding signal is 8230 fluorescence intensity (a.u.).

Consider “TGCGATTACACCCTTGCTTAAGCCTTGTATTACCTGTCAGCGGAGTCACCTAGTGCAG”, for which the binding signal was 12300 fluorescence intensity (a.u.).

Take “CTGTTTGCAATTTGCAATGAGGTGTCAACTACCTCATTCTCGGAGTCACCTAGTGCAG”: the binding signal is 8650 fluorescence intensity (a.u.).

With “TTCTTTCCAAATCCCCATCGCTTTCTTCTCCTCCTTTTTTCGGAGTCACCTAGTGCAG”, the binding signal is 8090 fluorescence intensity (a.u.).

“TGGCGGGCTTGGTGGTGGAGGTGGCAAGGAAGGAGGATTTCGGAGTCACCTAGTGCAG”: the binding signal is 8470 fluorescence intensity (a.u.).

“AACGTTTGATTTTTCATTTCTCTTATTACTGACTTATTTACGGAGTCACCTAGTGCAG”: the binding signal is 9850 fluorescence intensity (a.u.).

Take “CAGTCTGTTAATACTTGTTGTTTCTTATGTTATAGCGACACGGAGTCACCTAGTGCAG”: the binding signal is 11100 fluorescence intensity (a.u.).

As for “AATATATCACAAGCGACTATGATGATCAGTTTGTCCAATCCGGAGTCACCTAGTGCAG”, the binding signal was 8030 fluorescence intensity (a.u.).

For “CATTTTTTCTGTATTCCATGCTACAATGAGTCCCGTGGTGCGGAGTCACCTAGTGCAG”, the binding signal is 9640 fluorescence intensity (a.u.).

For the sequence “GGGATTGGGTAACTTTTCAGGGGCACACAAGGAATTTACTCGGAGTCACCTAGTGCAG”, the binding signal is 8240 fluorescence intensity (a.u.).

Take “GACGGTCACTGCACCTGAATATGATTGTTTTTTTTTTTTTCGGAGTCACCTAGTGCAG”: the binding signal was 11100 fluorescence intensity (a.u.).

“CCCCTCAACTTGTTTCCGGTTACTTCTTTCTCCTCATTTACGGAGTCACCTAGTGCAG”: the binding signal was 9260 fluorescence intensity (a.u.).

On to “GTTGCTGGTGATGAGCTTCACTTTCTTGGATTGATTTTTTCGGAGTCACCTAGTGCAG”, for which the binding signal is 8800 fluorescence intensity (a.u.).

Turning to “GACTTTTCACGTAACGTTTGACCATTTATCTTATTTATAACGGAGTCACCTAGTGCAG”, the binding signal was 9970 fluorescence intensity (a.u.).

Turning to “ACTTTATTGCGCCCTCCACACCATTCCGTCCGTTTTTGGTCGGAGTCACCTAGTGCAG”, the binding signal was 8950 fluorescence intensity (a.u.).

On to “GTTGTAGTTGCTGGTTTGCTTGCTAGCTTCGTCGTCTCCTCGGAGTCACCTAGTGCAG”, for which the binding signal was 11000 fluorescence intensity (a.u.).

Regarding “ACTTGTTTTACGTTCGGCTAATTAGCTGTTTGACCGTTTCCGGAGTCACCTAGTGCAG”, the binding signal is 15300 fluorescence intensity (a.u.).

For the sequence “ATATCACCTCACATAAACACACTGGATCGCTGTTTCCTCCCGGAGTCACCTAGTGCAG”, the binding signal is 8580 fluorescence intensity (a.u.).

With “GAGAATCCCGCGCCCGCCCGCCCGCATCACCGCCGGATGGCGGAGTCACCTAGTGCAG”, the binding signal is 9180 fluorescence intensity (a.u.).

As for “TTAAACTCTCCGTCTCATTGTTGTTTACATGTCGTCTAAACGGAGTCACCTAGTGCAG”, the binding signal was 11100 fluorescence intensity (a.u.).

Regarding “GGCTGCAGTTTCTGTTTTTTTTTTCTCTGCTGAATCTTGTCGGAGTCACCTAGTGCAG”, the binding signal is 8830 fluorescence intensity (a.u.).

For the sequence “CAACTGTGTACGTCATTTTGTTTGCTCTTTTATACATGTACGGAGTCACCTAGTGCAG”, the binding signal was 11800 fluorescence intensity (a.u.).

Take “TGTTTCGTTGTACTTTCTGCTCCCAGTTGAGGATTTGCCACGGAGTCACCTAGTGCAG”: the binding signal is 9380 fluorescence intensity (a.u.).

Take “CTTCCCTCCCGCGACTGACTTTTTTTCTTTTTTATTTTTCCGGAGTCACCTAGTGCAG”: the binding signal was 11600 fluorescence intensity (a.u.).

Turning to “CACGGCACTAGACACCACCATCCTCTTACCTTCCCGGTTTCGGAGTCACCTAGTGCAG”, the binding signal is 9130 fluorescence intensity (a.u.).

On to “TAACTCTTGTAGCTGTTTTGTTTTTGCATAGGTTTATATTCGGAGTCACCTAGTGCAG”, for which the binding signal is 10800 fluorescence intensity (a.u.).

With “TTATTCGTTAGTATGATTGCTATATATTGTTTTTTTTTACCGGAGTCACCTAGTGCAG”, the binding signal was 8050 fluorescence intensity (a.u.).

As for “ATACTCTCCCACCCACGTTCATGTTCTCCATGGAGCTGCACGGAGTCACCTAGTGCAG”, the binding signal is 8180 fluorescence intensity (a.u.).

For the sequence “CTTTCTATCAGCATTGGCAGCTTGCTCGTTGTAACTGTTTCGGAGTCACCTAGTGCAG”, the binding signal is 8630 fluorescence intensity (a.u.).

Take “CTTATTACTGTTCGAGCTTATGTCACATCTATTCCAAGGACGGAGTCACCTAGTGCAG”: the binding signal was 9690 fluorescence intensity (a.u.).

Regarding “TGATTAGATCAGCCATTTTAATTTTTTTGCCTCTTAAGTGCGGAGTCACCTAGTGCAG”, the binding signal was 8240 fluorescence intensity (a.u.).

Consider “ACGCTCTTTGTGTTGCTGCCACCGCCGCCGACCGCCGCAGCGGAGTCACCTAGTGCAG”, for which the binding signal is 9590 fluorescence intensity (a.u.).

For “GGGATAATTGTTCAGTCTTAGGCGAGCACAGATTTATCATCGGAGTCACCTAGTGCAG”, the binding signal was 9690 fluorescence intensity (a.u.).

For the sequence “TCGTTATACCTGGTTTTTTTGGTTGAGGGATGTTATTCGACGGAGTCACCTAGTGCAG”, the binding signal was 12500 fluorescence intensity (a.u.).

“TTGCCATCTAACATTTGTTATCTTGAGTTACCACAAATTTCGGAGTCACCTAGTGCAG”: the binding signal was 9210 fluorescence intensity (a.u.).

Regarding “CTCGCCTCTGGATCTCGCCCTCTCGGCGTCGCCGGCGCCTCGGAGTCACCTAGTGCAG”, the binding signal was 10500 fluorescence intensity (a.u.).

As for “TGATGCTTTGGCCGGGGTGGGTGTGTCTCCCGGTGTGTAGCGGAGTCACCTAGTGCAG”, the binding signal is 12400 fluorescence intensity (a.u.).

As to “TTACTACTACCACTCGTTTTCTTGGCTTGGTTTGGTTTGGCGGAGTCACCTAGTGCAG”, the binding signal was 13000 fluorescence intensity (a.u.).

Regarding “CTTTTTGTTCTTGTCCTTCTCTCTTTGTCTCTTCAATAATCGGAGTCACCTAGTGCAG”, the binding signal is 8520 fluorescence intensity (a.u.).

For the sequence “TTTTACCAACTTTCTTAATACTCGTGTCCACCTAAAAAATCGGAGTCACCTAGTGCAG”, the binding signal was 8440 fluorescence intensity (a.u.).

As for “GAAAAAAATGTATTTGACGGGTGGGTCTCACTTATAGAGACGGAGTCACCTAGTGCAG”, the binding signal was 8530 fluorescence intensity (a.u.).

Turning to “ACCGGTGCATATTGTTGATCAGTATTGTGTGTTGAACTGACGGAGTCACCTAGTGCAG”, the binding signal is 10400 fluorescence intensity (a.u.).

Turning to “ACATACAAACTGTGCAATTGGTTTTTTCTTCGTTCATATTCGGAGTCACCTAGTGCAG”, the binding signal was 9260 fluorescence intensity (a.u.).

For the sequence “GTGTCGGCGTGGATAAATGTTTCTTTCGATCCGGTTCAAGCGGAGTCACCTAGTGCAG”, the binding signal was 8600 fluorescence intensity (a.u.).

As to “CCCATGTAGTTTTATGCCTCGATGTACTTTGCCAAGCCCACGGAGTCACCTAGTGCAG”, the binding signal was 8500 fluorescence intensity (a.u.).

With “TTCGCTCTCTCTTGCTCTCCACCACCGCGGCTTTCTTTAACGGAGTCACCTAGTGCAG”, the binding signal is 12500 fluorescence intensity (a.u.).

In the case of “CCACGCACGTACCACCGGTTCATCACCCGACCAGTCAAATCGGAGTCACCTAGTGCAG”, the binding signal is 10100 fluorescence intensity (a.u.).

Take “CTGTATTTGCCACTGCTGTTTGTAGTCACAAGAAACACTACGGAGTCACCTAGTGCAG”: the binding signal was 8250 fluorescence intensity (a.u.).

Regarding “GTCAATGTGTTTGTTATTCTAACCAGCTCGTCAATTAATTCGGAGTCACCTAGTGCAG”, the binding signal was 10500 fluorescence intensity (a.u.).

Take “ATCCTTCTTCGTTTTCTGATTTTCCATCTCATCAGTAATACGGAGTCACCTAGTGCAG”: the binding signal was 10300 fluorescence intensity (a.u.).
